# Measured values reported in PubChem BioAssay.
# Values joined by “and” are separate entries in the source; they are usually repeats but may differ in a detail not shown here. Identical values can stand only once. Inconclusive results, whose numbers are uncertain, are shown.
# Test: polyglutamine aggregation reduction, turbidity readout, qthio, single concentration 25 µM screen (AID 1588)
# Conditions: at 25 µM, hits give low values
row,SMILES,aggregation (% of control)
1,CCN(CC)C(C)CN1c2ccccc2Sc2ccccc21 (stereo not given),inconclusive: 106%
2,CC(=O)Oc1ccc2c(c1)CCC1C2CC[C@@]2(C)C1CC[C@@H]2OC(C)=O (stereo not given in full),inconclusive: 117%
3,C=C1C(=O)O[C@@H]2C3OC3(C)CC/C=C(\C)CC[C@@H]12 (stereo not given in full),inconclusive: 98.3%
4,NS(=O)(=O)c1cc2c(cc1C(F)(F)F)NC(Cc1ccccc1)NS2(=O)=O (stereo not given),inconclusive: 102%
5,CC(=O)OCC(=O)[C@@]1(O)CC[C@H]2C3CCC4=CC(=O)CCC4(C)[C@@]3(F)[C@@H](O)CC21C (stereo not given in full),inconclusive: 96.9%
6,OCc1cc2c(cn1)[nH]c1ccccc12,inconclusive: 110%
7,c1ccc(CN(CC2=NCCN2)c2ccccc2)cc1,inconclusive: 99.3%
8,CCN(Cc1ccncc1)C(=O)C(CO)c1ccccc1 (stereo not given),inconclusive: 121%
9,Cc1cc(=O)n(-c2ccccc2)n1C,inconclusive: 110%
10,CC(=O)Nc1ccccc1,inconclusive: 104% and inconclusive: 126%
11,CCN(CC)CCOCCOC(=O)C1(c2ccccc2)CCCC1,inconclusive: 104%
12,NC(Cc1ccc(F)cc1)C(=O)O (stereo not given),inconclusive: 102%
13,CC(=O)N[C@@H](Cc1c[nH]c2ccccc12)C(N)=O,inconclusive: 95.9%
14,Cc1c(N(C)CS(=O)(=O)O)c(=O)n(-c2ccccc2)n1C,inconclusive: 111%
15,CC(C)NCC(O)c1cc(O)cc(O)c1 (stereo not given),inconclusive: 99.3%
16,CN(C)CCOC(c1ccc(Cl)cc1)c1ccccn1 (stereo not given),inconclusive: 92.2%
17,Nc1ccc(C(=O)NCC(=O)O)cc1,inconclusive: 131%
18,CC(=O)OCC(=O)[C@@]1(O)CCC2C3CCC4=CC(=O)CC[C@]4(C)C3[C@@H](O)C[C@@]21C (stereo not given in full),inconclusive: 110%
19,CCn1cc(C(=O)O)c(=O)c2cc3c(cc21)OCO3,inconclusive: 111%
20,CCn1nc(C(=O)O)c(=O)c2cc3c(cc21)OCO3,inconclusive: 105%

row,SMILES,aggregation (% of control)
1,NS(=O)(=O)c1cc(C2(O)NC(=O)c3ccccc32)ccc1Cl (stereo not given),inconclusive: 97.6%
2,CCN(CC)CCOC(=O)C(c1ccccc1)C1CCCCC1 (stereo not given),inconclusive: 124%
3,OC(CCN1CCCCC1)(c1ccccc1)c1ccccc1,inconclusive: 118%
4,NC1(C(=O)O)CCCC1,inconclusive: 94.2%
5,Cc1cc(CC(=O)O)n(C)c1C(=O)c1ccc(Cl)cc1,inconclusive: 103%
6,O=C1O[C@@H](CO)[C@H](O)[C@@H](O)[C@@H]1O,inconclusive: 97.4%
7,CCN(CC)C(=O)N1CCN(C)CC1,inconclusive: 116%
8,CC(=O)Oc1ccc(C(c2ccc(OC(C)=O)cc2)c2ccccn2)cc1,inconclusive: 104%
9,Oc1cc(O)c2c(c1)O[C@H](c1ccc(O)c(O)c1)[C@@H](O)C2,inconclusive: 98.3%
10,CON,inconclusive: 106%
11,Nc1c2c(nc3ccccc13)CCCC2O (stereo not given),inconclusive: 106%
12,NC1=NCCN1CC(=O)O,inconclusive: 102%
13,O=c1cc(-c2ccccc2)oc2c(O)c(O)ccc12,inconclusive: 97.6%
14,CN(C)C(=O)Oc1ccc[n+](C)c1,inconclusive: 122%
15,CN1C(=O)CC[C@H]1c1cccnc1,inconclusive: 103%
16,CCCCNc1ccc(C(=O)OCCN(C)C)cc1,inconclusive: 117%
17,COc1ccc(/C=C/c2cc(O)cc(O[C@@H]3O[C@H](CO)[C@@H](O)[C@H](O)[C@H]3O)c2)cc1O,inconclusive: 91%
18,CCN(CCCc1ccccc1)CCCc1ccccc1 (tested in a mixture with another compound),inconclusive: 106%
19,O=C(O)c1c2ccccc2cc2ccccc12,inconclusive: 95.5%
20,C=CCSCC1Nc2cc(Cl)c(S(N)(=O)=O)cc2S(=O)(=O)N1 (stereo not given),inconclusive: 96.5%

# Test: enhancers of SMN2 over SMN1 splicing, cell-based, SMN2/SMN1 luciferase reporters (AID 1598)
# Conditions: SMN2 vs SMN1 luciferase splicing reporter cells; at 10 µM; hits give high values
row,SMILES,SMN2/SMN1 luciferase ratio
1,CCN(CC)C(C)CN1c2ccccc2Sc2ccccc21 (stereo not given),inconclusive: 1.1
2,CC(=O)Oc1ccc2c(c1)CCC1C2CC[C@@]2(C)C1CC[C@@H]2OC(C)=O (stereo not given in full),inconclusive: 0.99
3,C=C1C(=O)O[C@@H]2C3OC3(C)CC/C=C(\C)CC[C@@H]12 (stereo not given in full),inconclusive: 1.09
4,NS(=O)(=O)c1cc2c(cc1C(F)(F)F)NC(Cc1ccccc1)NS2(=O)=O (stereo not given),inconclusive: 1
5,CC(=O)OCC(=O)[C@@]1(O)CC[C@H]2C3CCC4=CC(=O)CCC4(C)[C@@]3(F)[C@@H](O)CC21C (stereo not given in full),inconclusive: 1
6,OCc1cc2c(cn1)[nH]c1ccccc12,inconclusive: 0.88
7,c1ccc(CN(CC2=NCCN2)c2ccccc2)cc1,inconclusive: 0.97
8,CCN(Cc1ccncc1)C(=O)C(CO)c1ccccc1 (stereo not given),inconclusive: 0.94
9,Cc1cc(=O)n(-c2ccccc2)n1C,inconclusive: 0.89
10,CC(=O)Nc1ccccc1,inconclusive: 1.16 and inconclusive: 1.02
11,CCN(CC)CCOCCOC(=O)C1(c2ccccc2)CCCC1,inconclusive: 0.99
12,NC(Cc1ccc(F)cc1)C(=O)O (stereo not given),inconclusive: 0.94
13,CC(=O)N[C@@H](Cc1c[nH]c2ccccc12)C(N)=O,inconclusive: 1.04
14,Cc1c(N(C)CS(=O)(=O)O)c(=O)n(-c2ccccc2)n1C,inconclusive: 0.94
15,CC(C)NCC(O)c1cc(O)cc(O)c1 (stereo not given),inconclusive: 1.03
16,CN(C)CCOC(c1ccc(Cl)cc1)c1ccccn1 (stereo not given),inconclusive: 1.27
17,Nc1ccc(C(=O)NCC(=O)O)cc1,inconclusive: 1.08
18,CC(=O)OCC(=O)[C@@]1(O)CCC2C3CCC4=CC(=O)CC[C@]4(C)C3[C@@H](O)C[C@@]21C (stereo not given in full),inconclusive: 1.01
19,CCn1cc(C(=O)O)c(=O)c2cc3c(cc21)OCO3,inconclusive: 1.04
20,CCn1nc(C(=O)O)c(=O)c2cc3c(cc21)OCO3,inconclusive: 0.89

row,SMILES,SMN2/SMN1 luciferase ratio
1,NS(=O)(=O)c1cc(C2(O)NC(=O)c3ccccc32)ccc1Cl (stereo not given),inconclusive: 1.01
2,CCN(CC)CCOC(=O)C(c1ccccc1)C1CCCCC1 (stereo not given),inconclusive: 0.95
3,OC(CCN1CCCCC1)(c1ccccc1)c1ccccc1,inconclusive: 1
4,NC1(C(=O)O)CCCC1,inconclusive: 1.09
5,Cc1cc(CC(=O)O)n(C)c1C(=O)c1ccc(Cl)cc1,inconclusive: 0.86
6,O=C1O[C@@H](CO)[C@H](O)[C@@H](O)[C@@H]1O,inconclusive: 0.94
7,CCN(CC)C(=O)N1CCN(C)CC1,inconclusive: 1.01
8,CC(=O)Oc1ccc(C(c2ccc(OC(C)=O)cc2)c2ccccn2)cc1,inconclusive: 1.25
9,Oc1cc(O)c2c(c1)O[C@H](c1ccc(O)c(O)c1)[C@@H](O)C2,inconclusive: 0.89
10,CON,inconclusive: 0.98
11,Nc1c2c(nc3ccccc13)CCCC2O (stereo not given),inconclusive: 1.08
12,NC1=NCCN1CC(=O)O,inconclusive: 1.06
13,O=c1cc(-c2ccccc2)oc2c(O)c(O)ccc12,inconclusive: 0.8
14,CN(C)C(=O)Oc1ccc[n+](C)c1,inconclusive: 0.94
15,CN1C(=O)CC[C@H]1c1cccnc1,inconclusive: 1.12
16,CCCCNc1ccc(C(=O)OCCN(C)C)cc1,inconclusive: 0.99
17,COc1ccc(/C=C/c2cc(O)cc(O[C@@H]3O[C@H](CO)[C@@H](O)[C@H](O)[C@H]3O)c2)cc1O,inconclusive: 1.23
18,CCN(CCCc1ccccc1)CCCc1ccccc1 (tested in a mixture with another compound),inconclusive: 0.93
19,O=C(O)c1c2ccccc2cc2ccccc12,inconclusive: 1.02
20,C=CCSCC1Nc2cc(Cl)c(S(N)(=O)=O)cc2S(=O)(=O)N1 (stereo not given),inconclusive: 0.93
